Test results as given in the supplement of paper PMC6143611.
Structures can show the parent of a compound that is named as a salt. ± gives the uncertainty stated by the source. This is one part of the list. Baselines shift from plate to plate; read single values as rough.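 Larvae carried a heat-shock-induced fluorescent stripe in rod outer segments, set at 6 dpf; the shedding distance runs from this stripe to the outer segment tip, measured in confocal stacks, about three fish per compound. The controls got 0.2% DMSO vehicle, and the paper flagged compounds with at least a 20% change against the same-week control and p < 0.001 (Dunnett test on mixed-effects models).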

Columns and labels:
[1] = test system: Danio rerio larva rod photoreceptor outer segment; assay: rod outer segment growth distance Dg, difference from same-week DMSO control mean; higher = more outer segment growth; details: 20 µM; treatment time: 4 days (6-10 dpf)
[2] = test system: Danio rerio larva rod photoreceptor outer segment; assay: rod outer segment shedding distance Ds, difference from same-week DMSO control mean; higher = less outer segment shedding; details: 20 µM; treatment time: 4 days (6-10 dpf)

Compound	rod outer segment growth distance Dg [1]	rod outer segment shedding distance Ds [2]
Nc1nc2c(ncn2COC(CO)CO)c(=O)[nH]1 [Ganciclovir]	0.67 ± 0.17 um	1.03 ± 0.25 um
O=C(Nc1cccc2c(=O)cc(-c3nnn[nH]3)oc12)c1ccc(OCCCCc2ccccc2)cc1 [Pranlukast]	-0.66 ± 0.16 um	-0.17 ± 0.28 um
Nc1cc(C(Cl)=C(Cl)Cl)c(S(N)(=O)=O)cc1S(N)(=O)=O [Clorsulon]	-0.37 ± 0.18 um	-0.08 ± 0.097 um
C#CCC(Cc1cnc2nc(N)nc(N)c2n1)c1ccc(C(=O)N[C@@H](CCC(=O)O)C(=O)O)cc1 (some centres undefined) [Pralatrexate]	-0.27 ± 0.17 um	-0.34 ± 0.19 um
CN(CCOc1ccc(NS(C)(=O)=O)cc1)CCc1ccc(NS(C)(=O)=O)cc1 [Dofetilide]	0.01 ± 0.2 um	0.28 ± 0.2 um
Cc1c(Cc2ccc3ccccc3n2)c2cc(F)ccc2n1CC(=O)O	-0.63 ± 0.15 um	-0.19 ± 0.14 um
Cc1nc2c([nH]1)-c1ccccc1N(C(=O)c1ccc(NC(=O)c3ccccc3-c3ccccc3)cc1)CC2 [Conivaptan HCl]	0.65 ± 0.24 um	-0.59 ± 0.25 um
NS(=O)(=O)c1ccc(NC(=O)Nc2ccc(F)cc2)cc1	-0.33 ± 0.16 um	-0.03 ± 0.12 um
CN(N=O)C(=O)NC1C(O)OC(CO)C(O)C1O (centres undefined) [Streptozotocin (STZ)]	0.53 ± 0.15 um	-0.44 ± 0.14 um
Cn1cnc([N+](=O)[O-])c1Sc1ncnc2[nH]cnc12 [Azathioprine]	-0.55 ± 0.26 um	-0.14 ± 0.11 um
COc1ccc(C2CNC(=O)C2)cc1OC1CCCC1 (centres undefined) [Rolipram]	0.03 ± 0.18 um	-0.55 ± 0.18 um
CC1(C)S[C@@H]2[C@H](NC(=O)[C@H](N)c3ccc(O)cc3)C(=O)N2[C@H]1C(=O)O [Amoxicillin Sodium]	0.5 ± 0.29 um	-0.75 ± 0.15 um
COc1nc(C)nc(Cl)c1NC1=NCCN1 [Moxonidine]	0.32 ± 0.24 um	-0.31 ± 0.24 um
O=C(O)/C=C/c1ccc(Cn2ccnc2)cc1 [Ozagrel]	1.08 ± 0.26 um	0.51 ± 0.29 um
CCCCNc1cc(C(=O)O)cc(S(N)(=O)=O)c1Oc1ccccc1 [Bumetanide]	1.05 ± 0.31 um	0.49 ± 0.19 um
CN(C)Cc1cccc(N=C(c2ccccc2)c2c(O)[nH]c3cc(C(N)=O)ccc23)c1	-0.89 ± 0.22 um	0.6 ± 0.16 um

Compound	rod outer segment growth distance Dg [1]	rod outer segment shedding distance Ds [2]
NC(=O)Nc1sc(-c2ccc(F)cc2)cc1C(N)=O	-0.86 ± 0.17 um	0.25 ± 0.14 um
CS(=O)(=O)c1cccc(CNc2nc(Nc3ccc4c(c3)CCC(=O)N4)ncc2C(F)(F)F)c1	-0.9 ± 0.27 um	-0.71 ± 0.31 um
O=C1NC(=O)/C(=C/c2ccc3nccc(-c4ccncc4)c3c2)S1	-0.66 ± 0.28 um	0.04 ± 0.27 um
CC(S)C(=O)NCC(=O)O (centres undefined) [Tiopronin]	1.04 ± 0.23 um	-0.43 ± 0.3 um
CCNC(=O)CCC/C=C\C[C@@H]1[C@@H](/C=C/[C@@H](O)CCc2ccccc2)[C@H](O)C[C@@H]1O [Bimatoprost]	0.82 ± 0.37 um	-0.85 ± 0.38 um
CCCCN1CCCCC1C(=O)Nc1c(C)cccc1C (centres undefined) [Bupivacaine HCl]	0 ± 0.22 um	0.04 ± 0.27 um
CC(C)(C)OC(=O)N[C@H]1CCCCC/C=C\[C@@H]2C[C@@]2(C(=O)NS(=O)(=O)C2CC2)NC(=O)[C@@H]2C[C@@H](OC(=O)N3Cc4cccc(F)c4C3)CN2C1=O [Danoprevir (ITMN-191)]	-0.2 ± 0.18 um	-1.26 ± 0.25 um
O=C(O)COCCN1CCN(C(c2ccccc2)c2ccc(Cl)cc2)CC1 (centres undefined) [Cetirizine DiHCl]	-0.28 ± 0.16 um	-0.42 ± 0.2 um
CCN(Cc1ccncc1)C(=O)C(CO)c1ccccc1 (centres undefined) [Tropicamide]	0.46 ± 0.25 um	-1.08 ± 0.3 um
Cc1ccc(Nc2c(F)cccc2Cl)c(CC(=O)O)c1 [Lumiracoxib]	-0.53 ± 0.18 um	-0.18 ± 0.12 um
Cc1nnc(NS(=O)(=O)c2ccc(N)cc2)s1 [Sulfamethizole]	0.23 ± 0.34 um	-1.9 ± 0.35 um
CC[C@H](C)C(=O)O[C@H]1C[C@H](O)C=C2C=C[C@H](C)[C@H](CC[C@@H](O)C[C@@H](O)CC(=O)O)[C@H]21 [Pravastatin sodium]	-0.06 ± 0.15 um	0.03 ± 0.15 um
CN(Cc1cc(Br)cc(Br)c1N)C1CCCCC1 [Bromhexine HCl]	0.04 ± 0.77 um	-1.65 ± 0.75 um
C=CC[C@@H]1/C=C(\C)C[C@H](C)C[C@H](OC)[C@H]2O[C@@](O)(C(=O)C(=O)N3CCCC[C@H]3C(=O)O[C@H](/C(C)=C/[C@@H]3CC[C@@H](O)[C@H](OC)C3)[C@H](C)[C@@H](O)CC1=O)[C@H](C)C[C@@H]2OC [Tacrolimus (FK506)]	-0.29 ± 0.15 um	-0.07 ± 0.13 um
Cc1nc(-c2ccc(OCC(C)C)c(C#N)c2)sc1C(=O)O [Febuxostat]	-0.22 ± 0.14 um	-0.21 ± 0.16 um
O=c1ccc2ccc(O)c(O)c2o1 [Daphnetin]	-1.2 ± 0.25 um	-0.52 ± 0.18 um

Of the compounds above, these have an aryl methoxy group.
Compound	rod outer segment growth distance Dg [1]	rod outer segment shedding distance Ds [2]
COc1ccc(C2CNC(=O)C2)cc1OC1CCCC1 (centres undefined) [Rolipram]	0.03 ± 0.18 um	-0.55 ± 0.18 um
COc1nc(C)nc(Cl)c1NC1=NCCN1 [Moxonidine]	0.32 ± 0.24 um	-0.31 ± 0.24 um
